# Reference: the supplement of paper PMC3334620
# The full ranking holds about 33,000 sequences; the median of “E-score (-0.5 to 0.5)” is about -0.0034, and the highest 2% start at about 0.25. The list shows a part of the results.
# Target: T1, Yap3 (UniProt P38749)
# T1 sequence: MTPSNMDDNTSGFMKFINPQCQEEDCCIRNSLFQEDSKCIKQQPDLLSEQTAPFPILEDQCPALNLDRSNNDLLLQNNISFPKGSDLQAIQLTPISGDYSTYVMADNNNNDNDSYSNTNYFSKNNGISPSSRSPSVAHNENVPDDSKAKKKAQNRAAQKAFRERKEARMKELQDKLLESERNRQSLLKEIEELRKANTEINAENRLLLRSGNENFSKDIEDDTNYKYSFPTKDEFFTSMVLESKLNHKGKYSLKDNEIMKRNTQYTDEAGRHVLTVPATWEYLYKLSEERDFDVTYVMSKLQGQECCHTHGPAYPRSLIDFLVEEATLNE
# Assay: PBM E-score (8-mer binding enrichment) (E-score (-0.5 to 0.5)); higher = stronger / more preferred TF binding
# Settings: protein concentration: 100 nM; construct: GST-full length
# Outline: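 GST-tagged yeast TFs (full-length or DNA-binding domain) were made by PURExpress in vitro transcription/translation and applied at about 100-200 nM to universal all-10-mer Agilent arrays. The arrays were made double-stranded by primer extension, on fresh or once-stripped slides. Bound protein was detected with fluorescent anti-GST, and scans were normalised with masliner. Each ungapped eight-base word, pooled with its reverse complement, received an E-score (modified Wilcoxon-Mann-Whitney statistic) from the Universal PBM Analysis Suite.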
row,Sequence,PBM E-score
1,CAATGTGC,0.0307
2,GATATGCA,0.0313
3,GATATCCC,-0.0282
4,AATTCACC,0.0636
5,AAGATGGC,-0.0122
6,GGAGGGTA,-0.0456
7,CCCTACAA,0.0436
8,TGGCCAAA,0.126
9,ACCACCTC,-0.038
10,AAGGTCCG,-0.286
11,GATCGTAC,-0.105
12,CAGTTTCC,-0.00032
13,GATTCGCC,-0.071
14,CGCCAGTA,-0.199
15,AACATTTG,-0.164
16,CTAGCTTC,-0.216
17,ACATCTCT,0.068
18,AGTCGTCA,0.0647
19,GGCAAAAA,0.159
20,AAAACGCG,0.213
21,AATCCCGC,0.107
22,CCAATCTA,0.119
23,AGTAAGTC,0.0486
24,TGGAGAAA,-0.0587
25,TCTGTGCA,0.0618

row,Sequence,PBM E-score
1,TACCAACA,0.22
2,CTATCTAC,0.069
3,GCCTGACA,-0.126
4,CGAATACG,0.133
5,CAACCTCG,-0.0899
6,AAGCAGGT,0.0506
7,CGGCATCC,-0.0173
8,ACCGGAGC,-0.219
9,CTTCCCTC,-0.132
10,ACCTCCCT,-0.26
11,ACGCCACA,0.0621
12,TAGAGGGA,-0.146
13,CGTATACC,-0.179
14,CTGTAAAC,0.0823
15,GTTCGCGA,0.0297
16,ACTAAGAC,-0.0709
17,AGTTATAC,0.127
18,ACCGAGAC,-0.0351
19,GAGCCGCC,-0.215
20,CTGTCCCA,-0.211
21,CTCGTCAA,-0.055
22,CCTCAGCC,-0.204
23,GGTCAACC,-0.0758
24,GCTAAACC,-0.156
25,AGATTACA,0.129

# Look-ups from the results shown.
# AGTTATAC – PBM E-score: 0.127
# CTGTAAAC – PBM E-score: 0.0823

# Remaining list, next part:

row,Sequence,PBM E-score
1,GAGAGCAA,-0.0508
2,AGCTTTAA,0.0942
3,GAATCGTA,0.0223
4,GAGGTGAA,0.0133
5,AAATAACC,-0.00291
6,AATTTTGG,0.154
7,CCAAAGAG,0.0367
8,TCGTATAA,0.172
9,AGAGGAGG,-0.225
10,CACGCCCA,-0.15
11,AAGGAATA,0.216
12,CGGCGGGA,-0.325
13,ATACGCCA,-0.0884
14,ACGAGTAC,0.0946
15,CAACCGTG,-0.0184
16,CCCACATC,-0.244
17,GCATGTCA,-0.0904
18,GGCCGAAC,-0.163
19,CCCTCCGG,-0.38
20,CGTCGAAA,0.0907
21,GCTTCAAC,0.0512
22,GTTCCCGA,-0.0841
23,GCCCTAAC,0.184
24,AAGGACTG,-0.125
25,TAGCTATA,0.0179

# Two consecutive records out of the list so far, for reference:
row,Sequence,PBM E-score
10,CACGCCCA,-0.15
11,AAGGAATA,0.216

# Later entries.

row,Sequence,PBM E-score
1,CTCATGGC,0.0111
2,GTCTCTAA,-0.0177
3,ACACAGTC,-0.0489
4,CCGTCTAG,-0.166
5,CCAAAGCC,-0.105
6,AACCGCAA,0.159
7,CTTTCTCC,-0.166
8,CTAATCAC,0.271
9,CTGATGCC,-0.0823
10,ACTACATA,0.132
11,ATTGGACC,-0.094
12,ATGGAATC,0.237
13,CTCACCAA,0.146
14,ACGTGCGA,-0.133
15,ATTTGTCC,0.162
16,ATCAAGAG,0.208
17,CAGCACCC,-0.285
18,GCTGGCAC,-0.196
19,GGCTATAA,-0.0124
20,AGATAGAT,-0.0222
21,ATCTCACG,-0.0651
22,ATCCTTAG,-0.048
23,ATCCCGCC,-0.109
24,ACCACAGG,-0.23
25,AACCTCAT,0.00999

row,Sequence,PBM E-score
1,GCAACAGA,0.0308
2,CGCAATTC,0.129
3,ACGCGTAA,0.0957
4,AGGCTCAA,-0.214
5,ATGAATGG,0.268
6,ACCCGGAT,-0.265
7,CGGACCAG,-0.107
8,ACACGGCG,-0.113
9,CAAAGCGC,-0.0221
10,GAACTTTA,0.0552
11,GACGAGCC,-0.18
12,CGGGCCTA,-0.255
13,ATGTATAC,0.117
14,CATTGATC,0.142
15,GCATGCTA,-0.144
16,ACGACCCA,-0.0967
17,CGGCCACA,-0.115
18,AATGAACA,0.215
19,GTATACGA,-0.0953
20,CATTTTCC,0.193
21,GGCACGCC,-0.417
22,CAAAAGGC,-0.0663
23,TTAAACAA,-0.026
24,CATCCGGG,-0.18
25,GCCCGCAA,-0.0374

row,Sequence,PBM E-score
1,AAAGGACT,-0.192
2,GTTCGCCA,-0.0463
3,GAATAGGA,0.0879
4,ATCATCAT,0.139
5,ACGTTTCG,-0.0184
6,ACAGATAT,0.103
7,AAACTAAG,0.186
8,CATCAAAA,0.084
9,CTCTTACA,-0.0244
10,CGGATCTA,-0.0583
11,CGGAGCAA,0.0625
12,ACACGCCA,0.0057
13,ACTCCCGC,-0.074
14,ATGTAAAC,0.248
15,TAGAGCGA,0.174
16,AGCTGTCC,-0.0903
17,TACGAAAA,0.144
18,ACTAAAAC,0.182
19,CGGCAACA,0.121
20,AATAATGC,0.216
21,CCCCGACC,-0.237
22,AAACCTGC,-0.00698
23,CGTCACCA,0.0237
24,AGAGTTTG,0.00236
25,TACGCCTA,-0.057

row,Sequence,PBM E-score
1,GGGTGTCA,-0.127
2,ACGGGCTA,-0.0605
3,TAATCTCA,0.219
4,GCTTGCAA,0.095
5,ATAGGTAG,-0.0453
6,AAGTTAAA,0.163
7,ACATGGCG,-0.105
8,CCGCGACG,-0.179
9,CTTCTGAA,0.0313
10,GGAATGGA,-0.0717
11,CCAGGGCC,-0.37
12,AAGTCCAG,-0.0614
13,AGACCGAG,-0.0151
14,GCGAATAA,0.0154
15,AAAAAGAG,0.0691
16,CGGGACGA,-0.103
17,ACTTAAGC,-0.0238
18,AATTCTAC,0.162
19,ACGATAAG,0.0976
20,AAAGGGCC,-0.296
21,CTGGGAAG,-0.123
22,ATTGGCGC,-0.0226
